# Reference: publication PMC5852132
# Amino acid sequences for entries named in this document (tags omitted).
# UniProt P42227: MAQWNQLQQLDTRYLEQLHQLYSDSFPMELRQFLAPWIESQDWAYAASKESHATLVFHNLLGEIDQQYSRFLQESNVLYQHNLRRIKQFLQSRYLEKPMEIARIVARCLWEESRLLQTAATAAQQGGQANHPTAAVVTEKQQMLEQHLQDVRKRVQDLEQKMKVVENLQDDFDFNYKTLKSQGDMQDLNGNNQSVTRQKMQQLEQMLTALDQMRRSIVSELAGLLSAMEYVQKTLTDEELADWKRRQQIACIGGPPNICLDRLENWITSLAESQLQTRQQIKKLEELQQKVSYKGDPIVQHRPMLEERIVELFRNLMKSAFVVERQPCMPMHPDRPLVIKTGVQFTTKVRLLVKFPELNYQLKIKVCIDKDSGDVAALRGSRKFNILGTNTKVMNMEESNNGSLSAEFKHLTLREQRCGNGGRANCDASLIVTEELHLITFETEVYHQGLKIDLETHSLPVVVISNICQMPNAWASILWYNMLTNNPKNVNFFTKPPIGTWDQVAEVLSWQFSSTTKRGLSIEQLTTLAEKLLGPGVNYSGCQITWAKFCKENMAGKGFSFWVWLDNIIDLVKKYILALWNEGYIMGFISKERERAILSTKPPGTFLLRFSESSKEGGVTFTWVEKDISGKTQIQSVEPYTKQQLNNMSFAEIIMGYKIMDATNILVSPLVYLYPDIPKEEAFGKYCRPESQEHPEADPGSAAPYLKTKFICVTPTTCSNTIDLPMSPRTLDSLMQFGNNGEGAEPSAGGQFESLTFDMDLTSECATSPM
# UniProt P40763: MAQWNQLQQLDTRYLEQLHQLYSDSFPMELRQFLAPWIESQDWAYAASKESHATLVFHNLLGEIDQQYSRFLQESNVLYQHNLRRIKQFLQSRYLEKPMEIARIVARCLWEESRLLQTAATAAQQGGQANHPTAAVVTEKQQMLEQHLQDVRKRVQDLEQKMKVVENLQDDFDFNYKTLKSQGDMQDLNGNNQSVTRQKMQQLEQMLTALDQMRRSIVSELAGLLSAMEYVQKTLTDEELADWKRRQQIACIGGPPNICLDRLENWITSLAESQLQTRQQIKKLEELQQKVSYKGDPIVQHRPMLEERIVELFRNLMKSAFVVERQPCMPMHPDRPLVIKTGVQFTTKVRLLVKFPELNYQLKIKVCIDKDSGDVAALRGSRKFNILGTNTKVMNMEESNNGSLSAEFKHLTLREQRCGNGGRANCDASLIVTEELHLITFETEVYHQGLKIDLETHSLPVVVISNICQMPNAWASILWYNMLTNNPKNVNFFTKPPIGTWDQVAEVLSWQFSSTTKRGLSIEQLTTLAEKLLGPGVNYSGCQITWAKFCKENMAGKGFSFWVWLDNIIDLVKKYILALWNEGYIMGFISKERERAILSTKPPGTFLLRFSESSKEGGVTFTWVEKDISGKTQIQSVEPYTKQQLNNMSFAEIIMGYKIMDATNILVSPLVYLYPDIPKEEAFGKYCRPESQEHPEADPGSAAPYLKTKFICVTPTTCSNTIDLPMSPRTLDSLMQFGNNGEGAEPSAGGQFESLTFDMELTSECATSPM
# UniProt P70288: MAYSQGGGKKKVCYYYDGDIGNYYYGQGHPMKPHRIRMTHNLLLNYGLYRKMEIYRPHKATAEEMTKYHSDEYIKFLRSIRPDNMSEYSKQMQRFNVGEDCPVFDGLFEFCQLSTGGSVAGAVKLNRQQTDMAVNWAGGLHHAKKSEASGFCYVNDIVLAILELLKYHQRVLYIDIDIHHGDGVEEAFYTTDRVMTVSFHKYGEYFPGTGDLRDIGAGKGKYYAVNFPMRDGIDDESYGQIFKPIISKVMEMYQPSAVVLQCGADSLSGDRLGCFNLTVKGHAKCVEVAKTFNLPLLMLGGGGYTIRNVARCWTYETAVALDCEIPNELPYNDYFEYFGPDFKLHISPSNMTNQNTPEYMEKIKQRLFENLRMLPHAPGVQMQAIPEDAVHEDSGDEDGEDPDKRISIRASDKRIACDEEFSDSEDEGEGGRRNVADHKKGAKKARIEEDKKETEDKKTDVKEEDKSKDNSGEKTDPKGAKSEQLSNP
# UniProt Q09472: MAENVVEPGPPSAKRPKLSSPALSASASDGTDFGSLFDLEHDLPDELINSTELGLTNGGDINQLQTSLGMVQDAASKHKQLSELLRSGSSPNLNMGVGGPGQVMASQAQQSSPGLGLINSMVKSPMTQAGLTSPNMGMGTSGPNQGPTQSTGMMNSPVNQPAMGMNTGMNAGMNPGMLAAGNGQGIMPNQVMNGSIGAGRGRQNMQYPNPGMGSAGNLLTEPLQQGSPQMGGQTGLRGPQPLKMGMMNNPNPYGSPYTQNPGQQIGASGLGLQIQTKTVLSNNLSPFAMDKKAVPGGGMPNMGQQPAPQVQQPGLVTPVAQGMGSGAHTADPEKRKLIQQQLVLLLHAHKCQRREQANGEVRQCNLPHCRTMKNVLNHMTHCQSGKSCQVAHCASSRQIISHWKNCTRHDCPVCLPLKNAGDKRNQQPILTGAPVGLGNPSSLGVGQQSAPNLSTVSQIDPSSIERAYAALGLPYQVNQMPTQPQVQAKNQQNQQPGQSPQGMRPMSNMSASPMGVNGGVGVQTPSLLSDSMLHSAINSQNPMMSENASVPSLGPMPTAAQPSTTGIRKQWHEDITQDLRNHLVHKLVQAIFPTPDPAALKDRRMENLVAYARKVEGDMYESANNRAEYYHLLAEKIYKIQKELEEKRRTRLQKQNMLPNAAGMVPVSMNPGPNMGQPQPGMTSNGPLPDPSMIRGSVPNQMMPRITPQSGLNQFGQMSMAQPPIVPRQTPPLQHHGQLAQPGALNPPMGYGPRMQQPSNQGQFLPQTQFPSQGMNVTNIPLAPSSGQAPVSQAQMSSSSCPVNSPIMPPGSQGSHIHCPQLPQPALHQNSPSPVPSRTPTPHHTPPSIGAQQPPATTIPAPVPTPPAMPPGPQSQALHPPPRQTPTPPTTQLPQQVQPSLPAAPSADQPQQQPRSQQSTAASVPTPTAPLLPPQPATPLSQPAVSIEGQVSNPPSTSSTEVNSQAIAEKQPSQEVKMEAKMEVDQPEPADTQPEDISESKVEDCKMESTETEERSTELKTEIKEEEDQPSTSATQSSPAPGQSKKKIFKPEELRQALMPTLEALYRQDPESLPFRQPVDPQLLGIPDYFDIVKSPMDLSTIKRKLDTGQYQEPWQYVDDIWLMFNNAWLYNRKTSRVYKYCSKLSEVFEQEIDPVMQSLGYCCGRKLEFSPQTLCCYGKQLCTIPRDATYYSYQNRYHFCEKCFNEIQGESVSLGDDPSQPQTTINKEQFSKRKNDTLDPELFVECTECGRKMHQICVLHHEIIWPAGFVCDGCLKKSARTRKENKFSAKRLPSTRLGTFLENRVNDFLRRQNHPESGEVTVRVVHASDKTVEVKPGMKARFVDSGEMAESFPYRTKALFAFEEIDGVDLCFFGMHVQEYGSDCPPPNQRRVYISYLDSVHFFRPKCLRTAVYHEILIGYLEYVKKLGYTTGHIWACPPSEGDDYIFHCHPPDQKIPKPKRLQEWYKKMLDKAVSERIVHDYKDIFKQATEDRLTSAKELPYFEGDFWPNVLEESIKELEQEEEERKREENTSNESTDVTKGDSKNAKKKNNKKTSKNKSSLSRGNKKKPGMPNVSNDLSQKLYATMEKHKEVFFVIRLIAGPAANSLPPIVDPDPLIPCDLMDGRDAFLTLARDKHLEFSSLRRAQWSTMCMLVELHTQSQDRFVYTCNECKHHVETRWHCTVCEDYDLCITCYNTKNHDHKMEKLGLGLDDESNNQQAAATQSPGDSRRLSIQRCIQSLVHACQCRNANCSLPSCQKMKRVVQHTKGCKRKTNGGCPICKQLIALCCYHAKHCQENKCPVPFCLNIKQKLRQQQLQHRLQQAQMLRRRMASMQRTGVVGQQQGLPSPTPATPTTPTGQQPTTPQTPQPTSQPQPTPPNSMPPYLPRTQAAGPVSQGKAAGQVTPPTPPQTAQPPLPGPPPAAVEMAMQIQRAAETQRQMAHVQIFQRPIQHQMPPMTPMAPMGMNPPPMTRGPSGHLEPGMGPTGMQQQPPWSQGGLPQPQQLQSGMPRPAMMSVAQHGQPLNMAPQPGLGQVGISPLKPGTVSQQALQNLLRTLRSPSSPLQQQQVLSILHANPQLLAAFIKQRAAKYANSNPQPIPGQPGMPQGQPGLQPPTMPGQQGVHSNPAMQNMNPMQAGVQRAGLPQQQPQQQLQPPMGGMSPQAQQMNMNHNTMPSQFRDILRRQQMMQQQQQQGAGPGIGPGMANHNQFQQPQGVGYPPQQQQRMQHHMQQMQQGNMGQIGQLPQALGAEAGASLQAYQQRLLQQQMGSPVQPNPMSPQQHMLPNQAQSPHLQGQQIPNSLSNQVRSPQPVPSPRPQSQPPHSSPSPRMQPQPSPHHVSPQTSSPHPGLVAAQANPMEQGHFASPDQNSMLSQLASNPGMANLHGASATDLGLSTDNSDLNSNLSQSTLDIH
# UniProt O09106: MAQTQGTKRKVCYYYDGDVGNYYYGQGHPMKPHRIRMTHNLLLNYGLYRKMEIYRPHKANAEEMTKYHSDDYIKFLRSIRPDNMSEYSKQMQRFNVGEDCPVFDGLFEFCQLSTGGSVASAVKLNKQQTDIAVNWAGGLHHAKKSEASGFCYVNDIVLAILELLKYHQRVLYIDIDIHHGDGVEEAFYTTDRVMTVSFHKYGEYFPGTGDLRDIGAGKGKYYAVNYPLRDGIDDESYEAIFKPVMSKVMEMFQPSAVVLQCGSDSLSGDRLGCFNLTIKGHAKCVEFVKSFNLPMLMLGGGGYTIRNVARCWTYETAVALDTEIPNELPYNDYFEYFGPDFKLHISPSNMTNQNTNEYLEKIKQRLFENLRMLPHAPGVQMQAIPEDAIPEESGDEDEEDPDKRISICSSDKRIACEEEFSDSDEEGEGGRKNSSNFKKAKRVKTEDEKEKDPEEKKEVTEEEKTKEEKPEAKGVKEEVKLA
# No constants are given. Whether binding was seen depends on the method and setting. In cells and extracts the contact can be indirect. Some entries that bind do so weakly or less than the wild type.
# Experiments:
# [1] = biological target: acetylated STAT3 (ac-STAT3), mouse liver (mouse (endogenous in liver)) (UniProt P42227); experiment: co-IP; endogenous proteins, nucleus of mouse liver following partial hepatectomy
# [2] = biological target: STAT3, human HCC tissue (human (endogenous in HCC tissue)) (UniProt P40763); experiment: co-IP; endogenous proteins of human HDAC3-positive or HDAC3-negative HCC tissues
substance,measurement,setting,value
"HDAC2, mouse liver (from UniProt P70288 1-488) (enzyme)",binding,[1],binds
"p300, human HCC tissue (from UniProt Q09472 1-2414) (enzyme)",binding,[2],binds
"HDAC1, mouse liver (from UniProt O09106 1-482) (enzyme)",binding,[1],binds
